The values below come from PubChem BioAssay AID1487 (National Center for Advancing Translational Sciences (NCATS), 2009).

Structures are written as SMILES. “And” between values parts separate entries of the source, which are not always exact repeats. Identical values can stand only once. Some of the results follow. These are further read-outs of the screen, such as a control signal, another cell line or another target. No call is given for them. The list favours compounds with an active or inconclusive main result. Words in brackets tell the shape of the fitted curve; partial curves, single points and poor fits give uncertain potencies.

This assay is described as follows: qHTS Assay for Modulators of Lamin A Splicing. The following applies: HeLa LMNA splicing GFP/RFP minigene ratio, 48 h. Put shortly:
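S3 HeLa cells stably expressing lamin A-EGFP splicing minigene plus DsRed2, 600 cells/well, 48 h compound exposure at 37C. Laser-scanning cytometry; analysed as GFP (500-530 nm)/RFP (575-640 nm) total intensity ratio; 0.5% DMSO vehicle.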

The mark [1] stands for this setting: measured here: RFP viability control channel.
The mark [2] stands for this setting: measured here: GFP splicing reporter channel.

The term AC50 denotes the concentration giving half of the maximal activity seen.

For `Cc1ccc2cc(CN(Cc3ccco3)C(=S)NCC3CCCO3)c(=O)[nH]c2c1C` (centres undefined), under setting [1], the half-maximal activity concentration (AC50) was 14.1 µM [rising, single point].
Turning to `CCOC(=O)Cc1n[nH]c(=O)c2ccccc12`, under setting [2], the concentration at half-maximal activity (AC50) is 2.82 µM [rising, full curve].
Same read-out and setting: under `Fc1cccc(CN2CCc3nc(Nc4ccc5c(c4)OCCO5)ncc3C2)c1F` stands 2.82 µM [falling, partial curve, poor fit].
Consider `COc1ccc(-c2csc3ncnc(Nc4ccccc4)c23)cc1`, for which the half-maximal activity concentration (AC50) under setting [1] was 3.98 µM [rising, partial curve].
For the compound `Cc1ccc(CSC2=NC(C)(C)Nc3ccccc32)c(C)c1`, the AC50 is 35.5 µM [falling, partial curve, poor fit] under setting [2] and 35.5 µM [falling, partial curve, poor fit] under setting [1].
`Cc1cc(Sc2nc(N(C)C)nc(N(C)C)n2)nc(Cl)n1`: the AC50 under setting [2] was 0.0398 µM [rising, full curve, poor fit].
In the case of `CCOC(=O)c1c(S(=O)(=O)N2CCCC(C(=O)Nc3cccc(CC)c3)C2)c(C)n(CC)c1C` (centres undefined), the half-maximal activity concentration (AC50) is 0.891 µM [falling, full curve, poor fit] under setting [2] and 1.26 µM [falling, partial curve, poor fit] under setting [1].
As to `Fc1ccccc1N1CCN(C(c2ccccn2)c2nnnn2C2CCCCC2)CC1` (centres undefined), the concentration at half-maximal activity (AC50) was 12.6 µM [rising, single point] under setting [2] and 12.6 µM [rising, single point] under setting [1].
As to `Cc1c(NC(=O)Cc2ccc(Cl)cc2)cccc1-c1nc2cccnc2s1`, the AC50 under setting [1] is 35.5 µM [rising, single point].
Consider `CC(C)N1CCN(Cc2cccn2-c2cccnc2)CC1CCO` (centres undefined), for which the AC50 by setting is: under setting [2], 15.8 µM [falling, partial curve, poor fit]; under setting [1], 15.8 µM [falling, partial curve, poor fit].
Regarding `Oc1cccc(/C=N/NC(=S)Nc2cccnc2)c1O`, the AC50 runs as follows: under setting [2], 0.251 µM [rising, full curve]; under setting [1], 17.8 µM [rising, partial curve].
For the compound `O=C(COc1ccccc1)Nc1nnc(-c2ccco2)o1`, under setting [1], the AC50 is 0.0447 µM [falling, full curve, poor fit].
Consider `Cn1cc(CN(CCO)Cc2cccs2)c(-c2ccccc2F)n1`, for which the concentration at half-maximal activity (AC50) under setting [2] was 0.0501 µM [rising, full curve, poor fit].
As for `COc1cccc(CN(C(=O)Cc2c[nH]c3ccccc23)C(C(=O)NC2CCCCC2)c2ccc(C)o2)c1` (centres undefined), under setting [1], the half-maximal activity concentration (AC50) is 12.6 µM [rising, partial curve].
Turning to `Cc1cc(C)nc(SCC(=O)n2c3c(c4ccccc42)CCCC3)n1`, the AC50 under setting [2] is 3.16 µM [rising, single point].
`O=C(CSc1nc(Nc2ccccc2)c2ccccc2n1)c1ccc(Cl)cc1`: the AC50 runs as follows: under setting [2], 35.5 µM [falling, single point]; under setting [1], 25.1 µM [falling, partial curve].
Regarding `Cc1ccc(Cl)c(Nc2ccccc2C(=O)O)c1Cl`, the half-maximal activity concentration (AC50) runs as follows: under setting [2], 35.5 µM [falling, partial curve, poor fit]; under setting [1], 22.4 µM [falling, partial curve] and 22.4 µM [rising, partial curve].
As to `COc1cccc(NC(=O)c2ccc(-c3ccc([N+](=O)[O-])cc3)o2)c1`, the concentration at half-maximal activity (AC50) under setting [1] was 0.501 µM [falling, full curve, poor fit].
With `COc1cc(OC)cc(C(=O)NNC(=O)c2ccccn2)c1`, under setting [1], the concentration at half-maximal activity (AC50) is 17.8 µM [rising, partial curve].
Turning to `CC(c1ccccc1)C1CC(=O)N(Cc2ccccc2)C1=O` (centres undefined), the AC50 under setting [2] was 5.01 µM [rising, single point].
Consider `COc1ccc(NC(=O)c2nn(C34CC5CC(CC(C5)C3)C4)cc2[N+](=O)[O-])cc1`, for which, under setting [1], the AC50 was 35.5 µM [rising, single point].
On to `COc1ccc(/C=c2\s/c(=C/C(=O)c3ccc(C)cc3)[nH]c2=O)cc1OC`, for which the AC50 under setting [1] is 11.2 µM [rising, partial curve].
In the case of `COc1ccc(CNC(=S)Nc2cc(OC)ccc2OC)cc1`, the half-maximal activity concentration (AC50) under setting [2] was 11.2 µM [rising, single point].
Consider `COCCn1c(-c2ccc(Br)cc2)csc1=Nc1cccnc1`, for which the AC50 under setting [1] is 6.31 µM [rising, partial curve].
On the same count and under the same terms, under `CCCP(=O)(CC(=O)N(CC)CC)c1ccccc1` (centres undefined) stands 5.62 µM [rising, single point].
With `CCN(CC)CCCNC(=O)c1ccc2c(c1)sc1nc(-c3ccc(C)cc3)cn12`, the AC50 under setting [2] is 35.5 µM [falling, single point].
For the compound `Cc1c(NC(=O)/C(C#N)=C/c2ccc(-c3ccccc3Cl)o2)c(=O)n(-c2ccccc2)n1C`, under setting [1], the half-maximal activity concentration (AC50) is 11.2 µM [rising, partial curve, poor fit].
Consider `CC(=O)Nc1ccc(S(=O)(=O)Nc2cccc(-c3cn4c(n3)SCC4)c2)cc1`, for which the AC50 was 0.501 µM [rising, partial curve] under setting [2] and 1.26 µM [rising, single point] under setting [1].
In the case of `CCOc1cccc2sc(NC(=O)c3ccc(S(=O)(=O)N4CCCCC4C)cc3)nc12` (centres undefined), the AC50 under setting [1] is 3.55 µM [falling, full curve, poor fit].
Turning to `O=C(NCCN1CCOCC1)c1cnn2c(-c3ccccc3)cc(-c3ccccc3)nc12`, the AC50 under setting [2] is 10 µM [falling, partial curve].
Take `NC(C(=O)O)C(O)c1ccc(O)c(O)c1` (centres undefined): the AC50 was 0.141 µM [falling, full curve, poor fit] under setting [2] and 0.0794 µM [falling, full curve, poor fit] under setting [1].
For the compound `Cc1cnc2ncc3sccc3c2c1`, the concentration at half-maximal activity (AC50) under setting [2] was 35.5 µM [rising, single point].
For `CCOC(=O)c1c(C)[nH]c(C)c1S(=O)(=O)N1CCN(c2cc(Cl)ccc2C)CC1`, the half-maximal activity concentration (AC50) under setting [2] was 20 µM [falling, partial curve, poor fit] and the AC50 under setting [1] was 14.1 µM [falling, partial curve].
In the case of `COc1ccc(NC(=O)C(c2cc3c(cc2[N+](=O)[O-])OCO3)N(C)Cc2ccccc2)cc1` (centres undefined), under setting [1], the half-maximal activity concentration (AC50) was 14.1 µM [rising, partial curve].
Consider `CCc1cccc(NC(=O)c2ccc3c(c2)N(Cc2cccc(Cl)c2)C(=O)c2ccccc2S3=O)c1` (centres undefined), for which the concentration at half-maximal activity (AC50) under setting [2] was 3.55 µM [falling, single point].
`Cc1[nH]c(=O)c(C(=O)/C=C/c2ccccc2F)c2c1CCCC2`: the half-maximal activity concentration (AC50) is 6.31 µM [falling, full curve] under setting [2] and 10 µM [falling, partial curve] under setting [1].
Consider `Cc1ccc(-c2cc(C(=O)NCc3ccc4c(c3)OCO4)[nH]n2)c(O)c1C`, for which the AC50 reads like this: under setting [2], 35.5 µM [rising, single point]; under setting [1], 35.5 µM [rising, single point].
Turning to `COc1cccc(NC(=S)NCCC(c2ccccc2)c2ccccc2)c1`, the half-maximal activity concentration (AC50) was 35.5 µM [falling, single point] under setting [2] and 12.6 µM [falling, partial curve] under setting [1].
For `Cc1ccccc1CN1CCCN(CC(=O)Nc2ccc(F)cc2)S1(=O)=O`, the AC50 under setting [1] is 0.01 µM [falling, full curve, poor fit].
As for `COC(=O)c1c(C)nc2c(c(SC)nn2-c2ccccc2)c1N`, the AC50 under setting [2] is 2.82 µM [rising, single point].
Take `CC(=O)Oc1c(S(=O)(=O)c2ccccc2)c(C)nn1C(C)(C)C`: under setting [1], the AC50 was 35.5 µM [rising, single point].
Regarding `CCCCSc1[nH]c(=O)c(C(=O)OCC)cc1C#N`, under setting [2], the concentration at half-maximal activity (AC50) was 35.5 µM [falling, single point].
In the case of `c1cc2c(cc1C1=Nn3c(nnc3C3CCCCC3)SC1)OCO2`, the AC50 under setting [1] was 22.4 µM [rising, single point].
In the case of `Cn1c(-c2ccc(Cl)cc2)ccc(C#N)c1=O`, under setting [1], the AC50 is 22.4 µM [falling, single point].
As for `CC(C)(C)NC(=O)c1cccc(NC(=O)c2ccc(NC(=O)c3ccco3)cc2)c1`, the concentration at half-maximal activity (AC50) under setting [1] is 20 µM [rising, single point].
Consider `COc1ccccc1CCn1c(=O)c(-c2cn(C)c3ccccc23)nc2cncnc21`, for which the half-maximal activity concentration (AC50) is 5.01 µM [falling, full curve] under setting [2] and 5.01 µM [falling, full curve] under setting [1].
Take `CC1(C)CC(=O)C2=C(C1)N1C(=C(C#N)C2c2ccc(Cl)cc2)N=C(N)c2ccccc21` (centres undefined): the AC50 under setting [1] is 35.5 µM [rising, single point].
As for `CCCNC(=O)COC(=O)c1ccccc1OCC(=O)Nc1ccc(Br)cc1`, the AC50 under setting [2] is 2.51 µM [rising, partial curve, poor fit].
Same read-out and setting: under `NC(=O)C1CCN(Cc2nc3c(Br)cc(Br)cc3c(=O)[nH]2)CC1` stands 5.62 µM [falling, single point].
On to `CN(C)C1NC(=O)c2cc(-c3ccccc3)sc2N1` (centres undefined), for which the half-maximal activity concentration (AC50) was 3.55 µM [rising, partial curve] under setting [2] and 1.58 µM [rising, full curve] under setting [1].
As to `CC(=O)C(Cl)C(=O)Nc1ccccc1` (centres undefined), the AC50 under setting [1] was 0.891 µM [rising, full curve, poor fit].
As for `Cc1cc(C(=O)NCc2nc(-c3ccccc3)no2)ccc1[N+](=O)[O-]`, under setting [2], the half-maximal activity concentration (AC50) was 2.51 µM [rising, partial curve, poor fit].
`CCCc1cc(=O)[nH]c(SCc2nc(-c3ccc(OCC)cc3)no2)n1`: the half-maximal activity concentration (AC50) under setting [2] was 0.355 µM [rising, single point].
`Cc1ccc(-n2ncc3c(NCc4cccnc4)ncnc32)c(C)c1`: the AC50 under setting [2] is 3.16 µM [rising, full curve, poor fit] and the AC50 under setting [1] was 6.31 µM [rising, full curve].
With `O=C(NC(=S)NNC(=O)c1cc2ccccc2cc1O)c1ccco1`, the half-maximal activity concentration (AC50) by setting is: under setting [2], 4.47 µM [rising, partial curve]; under setting [1], 35.5 µM [rising, single point].
For `O=C(NCCN1CCOCC1)c1ccc2c(c1)N(Cc1c(F)cccc1Cl)C(=O)c1ccccc1S2`, under setting [2], the concentration at half-maximal activity (AC50) was 35.5 µM [falling, single point].
The same measure, in the same setting: under `Cc1ccc(-c2nnc(SCc3ccccc3)o2)cc1` stands 0.0355 µM [rising, full curve, poor fit].
